Test results: paper doi:10.1101/2023.06.27.546774
Results are given in words; binding and its absence hold for the method and conditions named. Binding seen in cells or lysates may run through a third protein. Some results given as binding are weak or reduced against the parent protein; the word gives no strength. Tags and fused reporters may be left off the sequences shown.

Amino acid sequences for entries named in this document (tags omitted).
UniProt P42224: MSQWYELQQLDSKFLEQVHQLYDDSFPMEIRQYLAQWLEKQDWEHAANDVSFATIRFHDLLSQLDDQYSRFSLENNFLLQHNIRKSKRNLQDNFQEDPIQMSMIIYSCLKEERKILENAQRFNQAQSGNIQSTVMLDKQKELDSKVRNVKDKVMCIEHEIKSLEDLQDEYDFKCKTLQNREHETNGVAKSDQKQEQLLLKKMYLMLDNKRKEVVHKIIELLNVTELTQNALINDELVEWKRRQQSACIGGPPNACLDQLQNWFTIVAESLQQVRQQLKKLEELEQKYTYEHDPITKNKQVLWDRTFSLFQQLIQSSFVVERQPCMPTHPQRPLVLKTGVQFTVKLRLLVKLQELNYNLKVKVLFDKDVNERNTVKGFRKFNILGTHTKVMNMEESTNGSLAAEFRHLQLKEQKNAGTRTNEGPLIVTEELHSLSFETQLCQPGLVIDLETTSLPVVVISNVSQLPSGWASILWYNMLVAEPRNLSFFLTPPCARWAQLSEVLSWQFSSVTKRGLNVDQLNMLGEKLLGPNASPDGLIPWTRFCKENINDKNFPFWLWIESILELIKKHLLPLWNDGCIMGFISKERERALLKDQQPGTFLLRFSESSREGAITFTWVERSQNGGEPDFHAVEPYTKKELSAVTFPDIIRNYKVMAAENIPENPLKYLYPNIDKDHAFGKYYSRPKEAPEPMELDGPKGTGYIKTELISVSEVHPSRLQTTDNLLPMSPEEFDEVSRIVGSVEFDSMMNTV

Target: GFP-tagged STAT1 (signal transducer and activator of transcription-1) (UniProt P42224)
Experiment: co-IP

binding: binds
B1: HA-tagged protein tyrosine phosphatase non-receptor type 2 (PTPN2) (enzyme, UniProt P17706-2 1-387)
chain: MPTTIEREFEELDTQRRWQPLYLEIRNESHDYPHRVAKFPENRNRNRYRDVSPYDHSRVKLQNAENDYINASLVDIEEAQRSYILTQGPLPNTCCHFWLMVWQQKTKAVVMLNRIVEKESVKCAQYWPTDDQEMLFKETGFSVKLLSEDVKSYYTVHLLQLENINSGETRTISHFHYTTWPDFGVPESPASFLNFLFKVRESGSLNPDHGPAVIHCSAGIGRSGTFSLVDTCLVLMEKGDDINIKQVLLNMRKYRMGLIQTPDQLRFSYMAIIEGAKCIKGDSSIQKRWKELSKEDLSPAFDHSPNKIMTEKYNGNRIGLEEEKLTGDRCTGLSSKMQDTMEENSESALRKRIREDRKATTAQKVQQMKQRLNENERKRKRPRLTDT
